We go through 1 substance from article PMC5490832.

By UniProt entry, the sequences of proteins in these tests, tags left out.
UniProt P03146: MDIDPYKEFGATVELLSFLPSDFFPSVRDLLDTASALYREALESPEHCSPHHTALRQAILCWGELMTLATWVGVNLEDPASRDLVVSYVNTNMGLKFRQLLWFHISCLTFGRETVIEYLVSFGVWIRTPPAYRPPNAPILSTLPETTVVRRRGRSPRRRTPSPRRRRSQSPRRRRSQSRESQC

Results are given in words; binding and its absence hold for the method and conditions named. Binding seen in cells or lysates may run through a third protein.

Test [1] addresses T1, Rab33B GTPase (UniProt O35963).
T1 sequence: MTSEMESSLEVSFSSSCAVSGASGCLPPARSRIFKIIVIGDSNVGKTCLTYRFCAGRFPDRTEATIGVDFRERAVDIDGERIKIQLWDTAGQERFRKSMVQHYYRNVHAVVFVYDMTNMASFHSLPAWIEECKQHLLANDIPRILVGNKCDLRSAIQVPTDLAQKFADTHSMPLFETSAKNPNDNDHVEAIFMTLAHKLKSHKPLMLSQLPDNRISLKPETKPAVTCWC
Description: pull-down; GST pulldown of core and Rab33B; no details given (told only in the discussion; which partner was fused to GST is not told).

The target in test [2] is T1, Rab33B GTPase. Description: co-IP; coimmunoprecipitation of core and Rab33B; no details given (told only in the discussion).

For the substance “hepatitis B virus (HBV) core protein (from UniProt P03146 1-183)”, the binding entry with Rab33B GTPase [1] and with Rab33B GTPase [2] was “no binding” each time.
